From article PMC11139901
These are yes or no findings as the source states them, for the method shown. Binding seen in cells or lysates may run through a third protein. Some binding calls cover weakened binding; strength is not graded here.

T1: Dbr1 (as in the reciprocal co-IP with AQR in 293T cells) (human), Q9UK59
T1 chain: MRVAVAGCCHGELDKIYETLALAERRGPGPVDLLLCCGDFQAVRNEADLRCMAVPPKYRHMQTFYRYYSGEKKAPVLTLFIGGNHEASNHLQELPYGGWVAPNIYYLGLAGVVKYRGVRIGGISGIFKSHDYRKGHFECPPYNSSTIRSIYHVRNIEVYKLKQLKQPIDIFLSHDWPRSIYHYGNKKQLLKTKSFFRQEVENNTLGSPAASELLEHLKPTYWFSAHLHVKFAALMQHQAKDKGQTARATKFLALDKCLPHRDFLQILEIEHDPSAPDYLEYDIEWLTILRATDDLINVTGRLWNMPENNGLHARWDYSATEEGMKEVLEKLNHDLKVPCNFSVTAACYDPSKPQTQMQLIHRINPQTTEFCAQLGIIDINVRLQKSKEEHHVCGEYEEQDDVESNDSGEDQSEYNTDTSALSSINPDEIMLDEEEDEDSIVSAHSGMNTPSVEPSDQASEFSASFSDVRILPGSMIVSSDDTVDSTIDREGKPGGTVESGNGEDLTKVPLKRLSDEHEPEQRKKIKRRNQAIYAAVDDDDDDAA

T2: AQR (human (endogenous in 293T)), O60306
T2 chain: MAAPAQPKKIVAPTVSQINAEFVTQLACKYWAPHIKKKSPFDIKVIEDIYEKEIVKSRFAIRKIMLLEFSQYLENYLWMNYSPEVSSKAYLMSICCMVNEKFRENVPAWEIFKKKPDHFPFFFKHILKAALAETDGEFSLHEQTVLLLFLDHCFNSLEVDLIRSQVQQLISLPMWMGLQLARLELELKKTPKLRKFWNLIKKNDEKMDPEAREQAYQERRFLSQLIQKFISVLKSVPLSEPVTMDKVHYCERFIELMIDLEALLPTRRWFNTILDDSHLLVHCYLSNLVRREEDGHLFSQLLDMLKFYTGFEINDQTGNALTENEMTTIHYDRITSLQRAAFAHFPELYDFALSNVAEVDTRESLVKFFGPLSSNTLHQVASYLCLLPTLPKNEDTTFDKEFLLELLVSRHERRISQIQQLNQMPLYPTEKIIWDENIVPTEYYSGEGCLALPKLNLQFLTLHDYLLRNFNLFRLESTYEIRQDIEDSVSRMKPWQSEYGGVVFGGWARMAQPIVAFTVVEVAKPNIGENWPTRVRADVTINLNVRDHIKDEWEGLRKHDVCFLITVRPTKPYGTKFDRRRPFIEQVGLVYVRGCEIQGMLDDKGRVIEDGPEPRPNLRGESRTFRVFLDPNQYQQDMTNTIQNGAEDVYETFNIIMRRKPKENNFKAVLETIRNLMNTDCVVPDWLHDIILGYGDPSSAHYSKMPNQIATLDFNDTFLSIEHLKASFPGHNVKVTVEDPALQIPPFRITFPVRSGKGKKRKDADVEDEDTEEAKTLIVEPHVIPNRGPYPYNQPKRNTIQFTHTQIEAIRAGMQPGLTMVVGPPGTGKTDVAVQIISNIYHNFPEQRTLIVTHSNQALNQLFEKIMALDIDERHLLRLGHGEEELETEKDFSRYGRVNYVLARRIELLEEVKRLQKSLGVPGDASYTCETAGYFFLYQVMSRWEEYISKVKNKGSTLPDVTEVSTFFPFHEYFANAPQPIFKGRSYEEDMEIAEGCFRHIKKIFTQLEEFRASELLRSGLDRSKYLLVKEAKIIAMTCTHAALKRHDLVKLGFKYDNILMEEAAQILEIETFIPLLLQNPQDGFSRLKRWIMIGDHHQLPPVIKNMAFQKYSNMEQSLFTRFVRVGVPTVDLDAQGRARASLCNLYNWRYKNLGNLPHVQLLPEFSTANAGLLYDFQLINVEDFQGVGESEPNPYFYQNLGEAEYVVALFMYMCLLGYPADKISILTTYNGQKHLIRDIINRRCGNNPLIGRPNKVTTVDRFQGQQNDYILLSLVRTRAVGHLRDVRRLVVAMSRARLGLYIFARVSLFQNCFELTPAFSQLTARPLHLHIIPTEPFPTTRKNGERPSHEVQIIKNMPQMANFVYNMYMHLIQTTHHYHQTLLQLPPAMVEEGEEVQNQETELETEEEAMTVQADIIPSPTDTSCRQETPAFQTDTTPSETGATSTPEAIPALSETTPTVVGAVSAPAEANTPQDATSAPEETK


Experiments:
[1] = molecular target: T1, Dbr1 (as in the reciprocal co-IP with …); experiment: co-IP; reciprocal co-IP of Dbr1 and AQR in 293T cells, western blot of both immunoprecipitations; n = 3; details: remark: other sources report otherwise
[2] = molecular target: T2, AQR (human (endogenous in 293T)), O60306; experiment: as above; details: remark: other sources report otherwise

Binder | binding [1] | binding [2]
AQR, O60306 1-1485 (protein) MAAPAQPKKIVAPTVSQINAEFVTQLACKYWAPHIKKKSPFDIKVIEDIYEKEIVKSRFAIRKIMLLEFSQYLENYLWMNYSPEVSSKAYLMSICCMVNEKFRENVPAWEIFKKKPDHFPFFFKHILKAALAETDGEFSLHEQTVLLLFLDHCFNSLEVDLIRSQVQQLISLPMWMGLQLARLELELKKTPKLRKFWNLIKKNDEKMDPEAREQAYQERRFLSQLIQKFISVLKSVPLSEPVTMDKVHYCERFIELMIDLEALLPTRRWFNTILDDSHLLVHCYLSNLVRREEDGHLFSQLLDMLKFYTGFEINDQTGNALTENEMTTIHYDRITSLQRAAFAHFPELYDFALSNVAEVDTRESLVKFFGPLSSNTLHQVASYLCLLPTLPKNEDTTFDKEFLLELLVSRHERRISQIQQLNQMPLYPTEKIIWDENIVPTEYYSGEGCLALPKLNLQFLTLHDYLLRNFNLFRLESTYEIRQDIEDSVSRMKPWQSEYGGVVFGGWARMAQPIVAFTVVEVAKPNIGENWPTRVRADVTINLNVRDHIKDEWEGLRKHDVCFLITVRPTKPYGTKFDRRRPFIEQVGLVYVRGCEIQGMLDDKGRVIEDGPEPRPNLRGESRTFRVFLDPNQYQQDMTNTIQNGAEDVYETFNIIMRRKPKENNFKAVLETIRNLMNTDCVVPDWLHDIILGYGDPSSAHYSKMPNQIATLDFNDTFLSIEHLKASFPGHNVKVTVEDPALQIPPFRITFPVRSGKGKKRKDADVEDEDTEEAKTLIVEPHVIPNRGPYPYNQPKRNTIQFTHTQIEAIRAGMQPGLTMVVGPPGTGKTDVAVQIISNIYHNFPEQRTLIVTHSNQALNQLFEKIMALDIDERHLLRLGHGEEELETEKDFSRYGRVNYVLARRIELLEEVKRLQKSLGVPGDASYTCETAGYFFLYQVMSRWEEYISKVKNKGSTLPDVTEVSTFFPFHEYFANAPQPIFKGRSYEEDMEIAEGCFRHIKKIFTQLEEFRASELLRSGLDRSKYLLVKEAKIIAMTCTHAALKRHDLVKLGFKYDNILMEEAAQILEIETFIPLLLQNPQDGFSRLKRWIMIGDHHQLPPVIKNMAFQKYSNMEQSLFTRFVRVGVPTVDLDAQGRARASLCNLYNWRYKNLGNLPHVQLLPEFSTANAGLLYDFQLINVEDFQGVGESEPNPYFYQNLGEAEYVVALFMYMCLLGYPADKISILTTYNGQKHLIRDIINRRCGNNPLIGRPNKVTTVDRFQGQQNDYILLSLVRTRAVGHLRDVRRLVVAMSRARLGLYIFARVSLFQNCFELTPAFSQLTARPLHLHIIPTEPFPTTRKNGERPSHEVQIIKNMPQMANFVYNMYMHLIQTTHHYHQTLLQLPPAMVEEGEEVQNQETELETEEEAMTVQADIIPSPTDTSCRQETPAFQTDTTPSETGATSTPEAIPALSETTPTVVGAVSAPAEANTPQDATSAPEETK | binds | –
Dbr1 (as in the reciprocal co-IP with AQR in 293T cells), Q9UK59 1-544 (enzyme) MRVAVAGCCHGELDKIYETLALAERRGPGPVDLLLCCGDFQAVRNEADLRCMAVPPKYRHMQTFYRYYSGEKKAPVLTLFIGGNHEASNHLQELPYGGWVAPNIYYLGLAGVVKYRGVRIGGISGIFKSHDYRKGHFECPPYNSSTIRSIYHVRNIEVYKLKQLKQPIDIFLSHDWPRSIYHYGNKKQLLKTKSFFRQEVENNTLGSPAASELLEHLKPTYWFSAHLHVKFAALMQHQAKDKGQTARATKFLALDKCLPHRDFLQILEIEHDPSAPDYLEYDIEWLTILRATDDLINVTGRLWNMPENNGLHARWDYSATEEGMKEVLEKLNHDLKVPCNFSVTAACYDPSKPQTQMQLIHRINPQTTEFCAQLGIIDINVRLQKSKEEHHVCGEYEEQDDVESNDSGEDQSEYNTDTSALSSINPDEIMLDEEEDEDSIVSAHSGMNTPSVEPSDQASEFSASFSDVRILPGSMIVSSDDTVDSTIDREGKPGGTVESGNGEDLTKVPLKRLSDEHEPEQRKKIKRRNQAIYAAVDDDDDDAA | – | binds
